The chains are these.
B1: P176 phage (S20, pIX) (peptide, not shown: large carriers)
chain: GGGKTCVSTTFDLWFVCFAGGGSGGSGG
B2: P174 phage (S16, pIX) (peptide, not shown: large carriers)
chain: GGGSGCLDALWQCVYGGGSGGSGG
B3: P175 phage (S15, pIX) (peptide, not shown: large carriers)
chain: GGGLPDDSLPELICKVRGGGGSGGSGG
B4: P143 phage (pIII CNL5) (peptide, not shown: large carriers)
chain: AGVLCSNFYHPLCHSGG
B5: P193 phage (CNL1-11, pIII) (peptide, not shown: large carriers)
chain: AGSYYWGYTVDIRRGG
B6: P194 phage (CNL1-11, pIII) (peptide, not shown: large carriers)
chain: AGSECFPLAPDWLSCILGG
B7: P173 phage (S18, pIX) (peptide, not shown: large carriers)
chain: GGGTDCVIFGLETYCLRGGGSGGSGG
B8: P189 phage (S18, pIX) (peptide, not shown: large carriers)
chain: GGGMFCFRWYAGWSCVSGGGSGGSGG
B9: P146 phage (pIII CNL5) (peptide, not shown: large carriers)
chain: AGTLCRSFFHPLCYAGG
B10: P145 phage (pIII CNL5) (peptide, not shown: large carriers)
chain: AGVLCHRYYHPICYTGG
B11: P191 phage (CNL1-11, pIII) (peptide, not shown: large carriers)
chain: AGHFYPTKTPGYGG
B12: P192 phage (CNL1-11, pIII) (peptide, not shown: large carriers)
chain: AGAASRALWAFNSDGG
B13: P190 phage, pIX display (190-phagemid) (peptide, not shown: large carriers)
chain: GGGDPCTWEVWGRECLQGGGSGGSGG
B14: P179 phage (S19, pIX) (peptide, not shown: large carriers)
chain: GGGGPCVLIRDYYLLCLEGGGSGGSGG

The chains behind the UniProt entries cited, without tags or fusion partners. Where a name states a change or a piece, a line headed by the entry shows the natural chain unless it says otherwise.
UniProt P01133: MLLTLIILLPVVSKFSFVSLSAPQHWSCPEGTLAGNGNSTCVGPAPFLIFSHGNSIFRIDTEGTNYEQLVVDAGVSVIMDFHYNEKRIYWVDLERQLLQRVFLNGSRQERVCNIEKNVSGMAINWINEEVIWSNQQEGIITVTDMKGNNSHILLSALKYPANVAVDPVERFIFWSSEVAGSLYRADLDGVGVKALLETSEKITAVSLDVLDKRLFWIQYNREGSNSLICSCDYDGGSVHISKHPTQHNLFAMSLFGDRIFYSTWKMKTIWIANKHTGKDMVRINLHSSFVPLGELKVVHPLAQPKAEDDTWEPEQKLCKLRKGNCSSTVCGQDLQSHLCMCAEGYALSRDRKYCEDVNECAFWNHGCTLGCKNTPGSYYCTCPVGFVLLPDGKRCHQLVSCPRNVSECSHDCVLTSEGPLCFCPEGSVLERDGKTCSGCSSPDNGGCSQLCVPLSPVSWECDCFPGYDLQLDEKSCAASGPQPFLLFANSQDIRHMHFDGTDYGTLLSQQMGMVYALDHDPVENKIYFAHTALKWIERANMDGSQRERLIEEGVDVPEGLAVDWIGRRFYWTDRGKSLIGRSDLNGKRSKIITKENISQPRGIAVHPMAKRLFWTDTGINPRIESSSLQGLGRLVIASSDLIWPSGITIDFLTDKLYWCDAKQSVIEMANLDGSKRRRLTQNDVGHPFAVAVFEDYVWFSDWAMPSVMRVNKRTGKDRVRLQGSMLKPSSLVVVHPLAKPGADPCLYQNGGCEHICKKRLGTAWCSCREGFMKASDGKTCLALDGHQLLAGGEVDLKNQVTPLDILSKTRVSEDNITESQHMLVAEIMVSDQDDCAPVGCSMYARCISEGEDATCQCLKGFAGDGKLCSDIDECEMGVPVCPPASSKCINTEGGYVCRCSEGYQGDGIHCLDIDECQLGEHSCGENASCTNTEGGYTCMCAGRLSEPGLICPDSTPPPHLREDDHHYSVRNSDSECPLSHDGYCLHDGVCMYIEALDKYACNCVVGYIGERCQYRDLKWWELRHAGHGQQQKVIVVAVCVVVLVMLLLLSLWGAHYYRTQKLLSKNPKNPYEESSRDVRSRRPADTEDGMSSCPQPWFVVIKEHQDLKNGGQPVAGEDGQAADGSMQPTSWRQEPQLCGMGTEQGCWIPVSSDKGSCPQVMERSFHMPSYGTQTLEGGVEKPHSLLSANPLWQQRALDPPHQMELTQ

The source of these data is patent publication US20100098681A1.

Results are given in words; binding and its absence hold for the method and conditions named. Some entries that bind do so weakly or less than the wild type.

One assay concerns the target biotinylated sEGFR-His6 (human) (UniProt P00533). The assay can be described thus: phage ELISA. On the technique in general: ELISA stands for enzyme-linked immunosorbent assay.
On to B1, for which the binding result is given as “binds”.
On the same count and under the same terms, to B2 belongs “binds”.

The next assay deals with sEGFR-MMB (dimeric sEGFR mimetibody) (human). The assay can be described thus: phage ELISA.
As to B3, the binding result is “binds”.
Still for that read-out and setting: to B1 belongs “binds”; to B2, “binds”.

A further assay has the same target. The assay can be described thus: phage ELISA, coated sEGFR-MMB.
With B3, the binding entry is on record as “binds”.
As for B4, the binding entry is listed as “binds”.
The same measure, in the same setting: to B1 belongs “binds”; to B5, “binds”; to B6, “binds”.
On the same count and under the same terms, the entry for B2 is “binds”; for B7 it is “binds”.
Same read-out and setting: the entry for B8 is “binds”; for B9 it is “binds”; for B10 it is “binds”.

The next assay has as its target Human extracellular EGFR-His6 (sEGFR-His6) (human) (UniProt P00533). The assay can be described thus: phage ELISA, coated sEGFR-His6.
For B6, the binding entry was “binds”.
The same measure, in the same setting: the entry for B8 is “binds”.

A further assay addresses biotinylated sEGFR-His6 (human) (UniProt P00533). Kind of assay: phage ELISA, streptavidin capture.
Turning to B4, the binding entry is on record as “binds”.
Same read-out and setting: the entry for B9 is “binds”.
The same measure, in the same setting: the entry for B10 is “binds”.

Another assay deals with EGF + sEGFR-MMB complex (human) (UniProt P01133). The assay can be described thus: phage ELISA, EGF + sEGFR-MMB complex.
As to B5, the binding entry is “binds”.
On the same count and under the same terms, to B11 belongs “binds”; to B7, “binds”.
Same read-out and setting: to B12 belongs “binds”; to B13, “binds”.

The target is the same in a further assay. The assay can be described thus: phage ELISA, coated sEGFR-MMB with EGF.
In the case of B13, the binding entry is “binds”.

Another assay deals with biotinylated sEGFR-His6 (human) (UniProt P00533). Kind of assay: phage ELISA, biotinylated sEGFR-His on streptavidin.
For B1, the binding result is given as “binds”.
Still for that read-out and setting: to B2 belongs “binds”.
On the same count and under the same terms, the entry for B10 is “binds”.

For a further assay, the target named is biotinylated sEGFR-MMB (human). The assay can be described thus: phage ELISA, biotinylated sEGFR-MMB on streptavidin.
With B3, the binding result was “binds”.
Same read-out and setting: the entry for B1 is “binds”; for B2 it is “binds”; for B7 it is “binds”.
On the same count and under the same terms, the entry for B10 is “binds”.

The target of another assay is sEGFR-MMB (dimeric sEGFR mimetibody) (human). Kind of assay: phage ELISA, luminescence; sEGFR-MMB coated on the wells [panel A].
Take B3: the binding result is “binds”.
The same measure, in the same setting: the entry for B1 is “binds”; for B2 it is “binds”.

A further assay concerns the target b-sEGFR-strep (human) (UniProt P00533). The assay can be described thus: phage ELISA, chemiluminescence; receptor captured on streptavidin-coated wells.
Turning to B4, the binding result is given as “binds”.
Same read-out and setting: the entry for B9 is “binds”; for B10 it is “binds”.

The next assay has as its target sEGFR-MMB (dimeric sEGFR mimetibody) (human). The assay can be described thus: phage ELISA, chemiluminescence; protein coated on the wells; detection anti-M13-HRP.
As to B4, the binding result is on record as “binds”.
Still for that read-out and setting: to B9 belongs “binds”; to B10, “binds”.

Another assay addresses biotinylated sEGFR-His6 (human) (UniProt P00533). The assay can be described thus: phage ELISA, luminescence; biotinylated receptor captured on streptavidin [panel C].
Consider B1, for which the binding entry is “binds”.
Consider B2, for which the binding entry is “binds”.

In a further assay the target is biotinylated sEGFR-MMB (human). The description is as above.
Regarding B3, the binding result is “binds”.
On the same count and under the same terms, the entry for B1 is “binds”.
Same read-out and setting: the entry for B2 is “binds”.

The next assay addresses EGF + sEGFR-MMB complex (human) (UniProt P01133). Kind of assay: phage ELISA, luminescence; coated sEGFR-MMB with EGF added before the phage [panel B].
Turning to B14, the binding entry was “binds”.
Same read-out and setting: the entry for B3 is “binds”; for B2 it is “binds”.

The target of a further assay is biotinylated sEGFR-His6 (human) (UniProt P00533). The assay can be described thus: phage ELISA, chemiluminescence; biotinylated receptor captured on streptavidin-coated wells.
With B4, the binding result is on record as “binds”.
Regarding B9, the binding result is “binds”.
As to B10, the binding result is given as “binds”.

The target of another assay is biotinylated sEGFR-MMB (human). The assay is described as above.
Turning to B4, the binding entry is recorded as “binds”.
Same read-out and setting: the entry for B9 is “binds”.
The same measure, in the same setting: to B10 belongs “binds”.
